# Measured values reported in the supplement of paper PMC3334620.
# In all, about 33,000 sequences were measured (“E-score (-0.5 to 0.5)”: median about -0.0014, highest 2% from about 0.25 on). The list shows a part of the results.
# Biological target: T1, Cad1 (UniProt P24813)
# T1 sequence: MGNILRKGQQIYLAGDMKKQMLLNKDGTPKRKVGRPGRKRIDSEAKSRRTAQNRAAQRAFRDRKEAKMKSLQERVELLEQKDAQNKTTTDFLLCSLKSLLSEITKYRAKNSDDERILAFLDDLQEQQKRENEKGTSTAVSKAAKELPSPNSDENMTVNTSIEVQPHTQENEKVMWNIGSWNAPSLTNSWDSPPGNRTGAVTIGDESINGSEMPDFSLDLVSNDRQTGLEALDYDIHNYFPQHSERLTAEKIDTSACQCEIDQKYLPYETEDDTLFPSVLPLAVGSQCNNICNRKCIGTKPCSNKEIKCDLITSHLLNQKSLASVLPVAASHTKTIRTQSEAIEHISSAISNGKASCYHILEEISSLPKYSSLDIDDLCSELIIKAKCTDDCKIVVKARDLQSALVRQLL
# Experiment: PBM E-score (8-mer binding enrichment) (E-score (-0.5 to 0.5)); higher = stronger / more preferred TF binding
# Settings: protein concentration: 100 nM; construct: GST-full length
# Procedure: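 Universal 'all 10-mer' protein binding microarrays (Agilent AMADID 015681) probed with GST-tagged S. cerevisiae TFs (full-length or DBD) made by in vitro transcription/translation (PURExpress), about 100-200 nM. Bound TF was detected with fluorescent anti-GST. Each ungapped 8-mer (which stands for itself and its reverse complement) is scored by the PBM enrichment score (E-score), a modified Wilcoxon-Mann-Whitney statistic from -0.5 to +0.5, computed with the Universal PBM Analysis Suite. Scale: above 0.35 generally sequence-specific binding.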
row,Sequence,PBM E-score
1,GCTATCGA,-0.0158
2,AAAGGGTC,-0.206
3,AGGGCACG,-0.144
4,GCGCGGCA,0.0659
5,TACCGTAA,0.0192
6,AGTCCAAT,0.117
7,TCAACACA,0.226
8,CTCAATAA,-0.0752
9,CTTGGTGC,-0.0501
10,CCTGCACA,-0.161
11,ATGCATAA,0.213
12,CCCGGTAC,-0.274
13,ATGCATCC,0.0114
14,GAATCCTA,0.192
15,AACGGCAA,0.0972
16,GCGACCAA,0.164
17,CGCGTAAA,0.239
18,TCTCTTCA,-0.124
19,AAAGCCTA,-0.0751
20,ATGTGTTA,0.175
21,CTCCCCAG,-0.344
22,TAGGTGAA,0.0224
23,CTAGGGCA,-0.353
24,AGTCTCGC,0.018
25,ACCCTAAG,-0.101

row,Sequence,PBM E-score
1,CATTCATA,0.196
2,CTCAGGGC,-0.0254
3,CTGCCTCC,-0.304
4,TTAACCAA,0.171
5,GAAACGCA,0.018
6,CCTCTCAC,-0.0674
7,CACAGAAA,0.0466
8,CCCAAGTC,-0.196
9,GACTATGA,0.0424
10,CGGCATAA,0.0918
11,CGTTGTGA,0.11
12,GTAGGAAC,0.131
13,GAATACCA,0.133
14,AAAGGGGC,-0.12
15,TCCCTACA,-0.0112
16,AAGCCGGG,0.0523
17,CTGGAAAG,-0.133
18,ACATATCA,0.234
19,CGAGTGGC,-0.203
20,CTATGGAA,-0.0317
21,CTTCCGCA,0.0248
22,CTTGGTTC,0.0483
23,CACAATAC,0.0365
24,ACGTCGTC,0.0395
25,AGCCAAAA,0.0723

row,Sequence,PBM E-score
1,AGTTCGTA,0.13
2,TGCGTCCA,0.0378
3,ACCTTGGC,-0.233
4,CAAACATG,-0.0319
5,TGACGTAA,0.138
6,AGGATTTG,0.0147
7,CGCCTTGC,-0.164
8,CAGGCACC,-0.189
9,ATTTAGGA,0.0482
10,AAGAGTCC,-0.14
11,GCCTCTGA,-0.113
12,ATAATGAA,0.166
13,ATCCCTGC,-0.114
14,AATAATTC,0.18
15,ACCCAGAA,0.141
16,AGGACTAC,-0.238
17,AAATTAGG,0.13
18,CCGCTCTC,-0.128
19,ACATGCCA,-0.0133
20,CTCGTCAG,-0.0379
21,CGGTCCCC,-0.23
22,ACGCGGAG,-0.061
23,GACCAGAC,-0.0441
24,GGGCCGTA,-0.0173
25,AGGAGATA,-0.137

row,Sequence,PBM E-score
1,CGTCTTAG,-0.177
2,AACTCAGG,-0.0816
3,CGCTGTAG,-0.0927
4,ATAGCAGG,-0.0469
5,TCACAACA,0.224
6,GAATTTAA,0.0361
7,GTCGCCAA,0.0725
8,GATATTGA,0.0604
9,TCGAGTCA,-0.11
10,TAGAAACA,-0.131
11,AAGAACTA,0.0282
12,AGTGGCTC,-0.122
13,CATCTGTA,-0.0246
14,AGGTACAG,-0.122
15,CACCAACA,0.0119
16,CTACGCAG,0.0032
17,CGTCTGGC,0.0651
18,ATACACAA,0.11
19,AAACGGGG,0.133
20,AGGCTCCG,0.111
21,CCGGCAGC,-0.0715
22,ATCGCAGC,0.0906
23,GCTGTAAA,-0.115
24,AGCCGCGG,0.0567
25,AGGACGGC,-0.136

row,Sequence,PBM E-score
1,ATTCGACA,-0.086
2,GCTAGGCA,-0.187
3,ACACCTTC,0.104
4,GGGGGAGA,-0.406
5,CCAGCTGA,0.155
6,CATAAAAC,0.0149
7,AGGAAGGA,-0.346
8,AACCCTTA,0.166
9,TACAGCAA,0.0251
10,AACTGAAC,-0.157
11,CGGGTTCC,0.0289
12,CTACCACA,-0.185
13,CATGGCGA,0.114
14,ATGTTGGG,-0.138
15,ATATGACA,0.198
16,CCGCCTGC,-0.173
17,CCACTCAA,0.078
18,GGTTGTCA,-0.0032
19,AGGACCTC,-0.253
20,AAGACTCT,0.0337
21,TGCATAAA,0.131
22,CCGACTTC,-0.22
23,GCATTTGA,0.162
24,AGTTCCGA,0.0228
25,ACTTCGTC,0.0105

row,Sequence,PBM E-score
1,ACGGGGTA,-0.143
2,CGCGGCAC,-0.0774
3,AAAATTCC,0.171
4,CACGAAGC,-0.00366
5,ACTTGCCT,-0.186
6,GTTTCCCA,0.0983
7,GATGCGAC,-0.0578
8,ATGACAAC,0.183
9,AAGCGACT,-0.0195
10,GCTCAACA,0.0273
11,GAAACGTA,0.0881
12,CCGAGGAC,0.0745
13,ACAGTCGT,-0.0216
14,GAACAGCA,0.0268
15,GTGGCGAA,-0.0438
16,AGCAGCGA,0.127
17,AACGTTGC,0.128
18,ACGACATA,-0.0422
19,CTTAATCA,0.141
20,GTAAGGGA,-0.0748
21,AAACGGGT,0.0173
22,GCAAACCC,-0.137
23,CGCGAGTC,0.0524
24,CGAGTGTA,-0.0885
25,ACACGGAT,0.201

row,Sequence,PBM E-score
1,CCTATAGG,-0.123
2,CACCGCCC,-0.0109
3,CTTGCTGA,0.0349
4,ACAATACT,0.166
5,AAGCTTCA,-0.0382
6,CTAGGACA,0.129
7,CGATGACA,0.201
8,CTGGCGGA,-0.0596
9,GAAACATA,0.0504
10,AGGATGTC,-0.0351
11,AGTTCAGA,-0.104
12,AGGACCTG,-0.175
13,CGCTCACA,0.173
14,ATCAGCTA,0.0837
15,CTAGCCCA,-0.145
16,CCATGAAG,-0.0859
17,ATAGACGA,0.063
18,AAGTGAAA,0.152
19,CTACAACA,-0.0148
20,ACTATTGC,0.00174
21,GCGCACTA,0.115
22,GCGCGCCC,-0.0295

# Some of the entries so far, with tabs.
row	Sequence	PBM E-score
13	GAATACCA	0.133
14	AAAGGGGC	-0.12
15	TCCCTACA	-0.0112
16	AAGCCGGG	0.0523
17	CTGGAAAG	-0.133
18	ACATATCA	0.234
